Primary screen of a compound library

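Whole-parasite assay of Trypanosoma brucei over 72 hours; the read-out is not stated. Concentration: 30 µM. Direction is inferred from retests: higher values go with stronger inhibition. Values scatter widely below zero; nearly all retest evidence comes from the higher of the two concentrations used. Size under these conditions: about 64,000 compounds, about 940 of them at 50% or above in at least one test.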

Results are given as percent effect.
The controls that fix the scale are not given in the record; negative values are as filed.
This is an unselected part of the compounds tested.

structure	effect
OC(CN1CCCCCCC1)c1ccc(OC(F)(F)F)cc1 (stereo unspecified)	9.045%
COc1ccccc1CNC(=O)C(C)N1CC(n2nc(C)cc2C)C1 (stereo unspecified)	-4.202%
O=C(O)C(F)(F)F.[H][C@]12CCC[C@@H](CNc3ccccn3)[C@@]1([H])CN(Cc1cccnc1)C2	7.84%
CCC(C)N(Cc1cccnc1)Cc1ccccc1Cn1cccn1 (stereo unspecified)	9.326%
COc1cc(NC(=O)N(C)CCC2CC2)ncn1	-37.81%
Cc1noc(C)c1CCC(=O)N(C)C(C)c1cccs1 (stereo unspecified)	-39.74%
Cc1c(CNC(=O)c2cn(CCC3CCCCN3)nn2)cnn1C (stereo unspecified)	-19.02%
CC(C)(C)CC(=O)NCCCn1cncn1	1.226%
COC(C)(C)C(=O)N[C@H]1CN(c2nccnc2N(C)C)C[C@@H]1C(C)C	-45.2%
CCCn1ncc(C2CC(=O)NCc3nc4sc(C)cn4c32)c1C (stereo unspecified)	14.19%
CCOc1ccccc1OCCN(C)Cc1ncnn1CC	-23.83%
Cn1cnnc1SCC(=O)NC1CC(=O)N(CCc2ccccc2)C1 (stereo unspecified)	-20.41%
[H][C@@]12C[C@H](C)O[C@@]1([H])CCN(C(=O)COCC)C2	-119.2%
CCc1cc(CN(C)C(=O)CN2CC(Cc3ccccc3)CC2=O)on1 (stereo unspecified)	1.321%
O=C(c1cc(Cl)cc2cccnc12)N1CCN(CCO)CC1	-0.2156%
CCCNC(=O)c1cc2c(c3ccccc3n2C)n1C(=O)N(C)C	27.2%
Cn1cc(S(=O)(=O)Nc2ccc(Cl)cn2)cc1C(N)=O	-35.34%
CCn1cnnc1CNC(=O)c1cc(Cl)c(I)cc1OC	16.59%
CCSCCC(=O)NCc1cnn(-c2ccc(F)cc2F)c1	-45.23%
COC(=O)CNC(=O)c1c(-n2cnnn2)sc2c1CCCC2	-7.385%
Cn1nccc1CNC(=O)Nc1cc(C(F)(F)F)c[nH]c1=O	-8.075%
CCN1CC(C(=O)NC(C)(C)C(=O)OC)CC1=O (stereo unspecified)	-23.01%
CC(c1ncc(-c2ccccc2)o1)N1CCN(C(=O)N(C)C)CC1 (stereo unspecified)	-40.74%
CC(Cn1ccnc1)NC(=O)NCc1ccc2c(c1)OCCO2 (stereo unspecified)	8.476%
O=C(Nc1ccc(F)cc1)C1CSCN1 (stereo unspecified)	6.288%
CC(=O)NCc1cc(-c2cccs2)n(C2CCCC2)n1	-36.94%
CC(CC(=O)NCCCn1cccn1)c1cccnc1 (stereo unspecified)	-26.33%
Cc1cc(C)nc(NC2CCCN(CCCc3ccccc3)C2)n1 (stereo unspecified)	2.203%
COCC1CN(C(=O)c2ccccn2)Cc2nccn2C1 (stereo unspecified)	-4.847%
O=C(NCc1ccccc1)[C@@H]1Cc2[nH]cnc2CN1CC1CC1	-19.95%
COCCO[C@H]1CCN(Cc2cccnc2)[C@H]1Cc1cccnc1.O=C(O)C(F)(F)F.O=C(O)C(F)(F)F.O=C(O)C(F)(F)F	-61.59%
CCCOC1CCCN(C(=O)c2ccnc(N3CCN(C)CC3)c2)C1 (stereo unspecified)	-52.4%
Cc1ccsc1CN1CC2(CCN(C(=O)C3CC3)CC2)CC1C(=O)O (stereo unspecified)	-36.3%
Cc1nnc(CN2CCC3(CCC(=O)N([C@H]4CC[C@H](O)CC4)C3)CC2)o1	-62.98%
Cc1ccsc1C(O)CNC(=O)Cc1ccc(S(=O)(=O)C(C)C)cc1 (stereo unspecified)	-1.284%
O=C(O)C(F)(F)F.[H][C@@]12CCN(CCOCc3ccccc3)C[C@@]1([H])[C@H](C(=O)N(C)C)CCO2	-3.678%
Cc1occc1C(=O)N1CCc2c(CNc3ncccn3)cncc2C1.Cl	-10.15%
CC(Nc1nc(-c2ccccc2)nc2c1CCNCC2)c1nccs1 (stereo unspecified)	-12.23%
O=C(Cc1c[nH]c2ncccc12)NCC(O)c1ccccc1F (stereo unspecified)	-5.415%
Cc1nn(C)c2nc(N(CCN(C)C)C3CCCC3)sc12	-64.98%
CCOCc1nc2c(c(N3CC=CC3)n1)CCN(Cc1ccco1)CC2	-46.5%
[H][C@@]12C[C@H](C(=O)Nc3cccnc3)[C@@]([H])(CN(C)C1)O2	-78.76%
N#Cc1ccc(N2CCCN(CCCn3cncn3)CC2)cc1	-45.22%
O=C(CCNc1ncccn1)N1CCCN(c2nccs2)CC1	-37.13%
COc1cc(NCc2ccncc2)c(-c2nn[nH]n2)cc1OC	25.07%
COCCC(=O)Nc1ccnc(Oc2ccccc2)c1	-31.28%
CCC1=NN2C(=N)/C(=C\c3cccn3-c3cccc(Cl)c3)C(=O)N=C2S1	26.33%
O=C1CC(c2ccsc2)c2snc(C(=O)O)c2N1 (stereo unspecified)	-52.73%
COCCN(Cc1ccccn1)C(=O)Nc1cccnc1N1CCCC1	-92.25%
Cc1nc(NC(=O)N2CCCC(C(C)(C)O)C2)nn1C (stereo unspecified)	-25.19%
CCc1cc(N(C)Cc2[nH]nc3c2CCC3)nc(N2CCOCC2)n1	0.8445%
CCc1cc(CN(C)C(=O)c2cnn[nH]2)on1	-3.05%
CCC(C)(CO)NC(=O)Nc1cc2c(cc1SC)OCCO2 (stereo unspecified)	9.143%
CN(Cc1nc(-c2ccoc2)no1)C1CCCN(c2cccnn2)C1 (stereo unspecified)	-6.863%
COCCN1C[C@@H](C)[C@@]2(COCCN(C(=O)Cc3ccccc3)C2)C1.O=C(O)C(F)(F)F	12.3%
[H][C@]12CN(Cc3cccs3)CCN1C[C@H](c1ccccc1)[C@H]2C(=O)NC	20.19%
[H][C@@]12CS(=O)(=O)C[C@]1([H])N(C(=O)c1ncoc1C)CCN2C(=O)CC(C)C	-2.742%
CCc1nc(C2CCCN(C(=O)c3cnn(CC)c3)C2)no1 (stereo unspecified)	-14.68%
O=C(c1ccc(Cl)cc1F)N1CCC(Cn2cc(CO)nn2)CC1	19.48%
CCCc1cc(CNC(=O)Cc2cc(C)no2)on1	-20.73%
O=S(=O)(Cc1ccccc1CN1CCOCC(O)C1)c1ccccc1 (stereo unspecified)	-19.7%
CCOC(=O)N1CCN(C(=O)C(C)n2ccnc2C(C)C)CC1 (stereo unspecified)	-28.03%
CCC(NC(=O)NCC(=O)Nc1ccc(F)cc1)c1ccncc1 (stereo unspecified)	2.596%
Cc1cc(C)c(CNC(=O)C2COc3ccccc3C2)c(=O)[nH]1 (stereo unspecified)	4.896%
O=C(O)C(F)(F)F.[H][C@@]12CN(CC3CCOC3)C[C@@]1([H])N(Cc1cccc(F)c1)C(=O)CO2 (stereo partly specified)	-4.498%
Cc1ccc2nc(C)cc(NCCNS(=O)(=O)c3cn(C)nc3C)c2c1	-6.451%
Cc1nn(C)c(C)c1NC(=O)CN1CCc2c(nc(C(C)C)n2C)C1	11.86%
CCCc1cc(C(=O)N2CCC3(CCCNC3=O)C2)cs1 (stereo unspecified)	-62.67%
CN1CCOCC2(CCCN(C(=O)Cc3ccncc3)C2)C1.O=C(O)C(F)(F)F (stereo unspecified)	-14.42%
COc1ccc(NC(C)c2nnnn2-c2ccccc2)cc1F (stereo unspecified)	-25.77%
CCOCCCNC(=O)N(C)Cc1ccc(SC)c(OC)c1	-12.11%
Cc1ccc(C(O)CNC(=O)NCc2nc(C)cs2)cc1 (stereo unspecified)	-12.43%
Cc1cnn(C2CCCN(C(=O)c3cn4cccnc4n3)C2)c1 (stereo unspecified)	27.09%
OC1(CN2CCCCC2)CCN(c2cccc(C(F)(F)F)n2)C1 (stereo unspecified)	10.5%
CN1CCC(Cc2nc(-c3cnccn3)n(Cc3ccccc3)n2)CC1	6.412%
NCCO[C@H]1C[C@@H](O)C12CCN(C(=O)CCOc1ccccc1)CC2	-7.319%
Cc1cc2c(cc1C)OC(C(=O)NCCNC(=O)C1CCCC1)C2 (stereo unspecified)	-24.8%
[H][C@@]12CN(C(=O)c3ccsc3)C[C@]1([H])C(=O)N(Cc1cccc(F)c1)C2	-12.2%
CCOc1cc(=O)n2c(c1C(=O)OCc1ccc(OC)cc1)CCCC2	-28.25%
Cc1ccc(CN2CCc3c(COCC4CC4)nn(C)c3C2)s1.O=C(O)C(F)(F)F	7.708%
O=c1cc(CN2CCCC2)nc2n1CCCN(Cc1ccsc1)C2	25.59%
COc1ccc(NC(=O)C2OC(c3cccs3)=NN2C(C)=O)cc1OC (stereo unspecified)	-21.37%
CN(CC(=O)NC1(C)CCS(=O)(=O)C1)Cc1ccc(Br)cc1 (stereo unspecified)	-6.738%
CCN(C(=O)Cn1cc(NC(=O)C(C)(C)C)cn1)c1ccccc1	-2.137%
CN(C)C(=O)c1cncnc1-c1ccc(CNC(=O)C2CC2)cc1	7.934%
Cc1ccc(C2CN(Cc3cnc(-c4cccnc4)s3)CCO2)o1 (stereo unspecified)	-1.197%
[H][C@@]12CCN(C(=O)NCC)C[C@]1([H])CCN(CCN1CCNC1=O)C(=O)C2	-3.926%
COc1cc2cc(C(=O)N[C@@H](C)C(=O)O)n(C)c2c(OC)c1OC	-3.607%
COCCO[C@H]1CCN(c2ccc(C)nn2)[C@H]1Cc1cnn(C)c1	-45.18%
Cc1cnn(CCNCc2nc(CNC(=O)c3ccccc3)no2)c1	55.13%
Cc1nc(N(C)C)ncc1C(=O)N[C@H]1Cc2ccccc2[C@@H]1N	-22.97%
O=C1CC2(CCSC2)C(=O)N1CCCc1ccccc1 (stereo unspecified)	-3.322%
CCN1CC2(CNCCN(C(=O)Nc3ccccc3)C2)CC1=O.O=C(O)C(F)(F)F (stereo unspecified)	-24.78%
N#Cc1ccc(F)c(CSCCN2CCOCC2)c1	-2.16%

For reference, 10 entries once more:

| structure | effect |
|---|---|
| `O=C(O)C(F)(F)F.[H][C@@]12CN(CC3CCOC3)C[C@@]1([H])N(Cc1cccc(F)c1)C(=O)CO2` (stereo partly specified) | -4.498% |
| `CCOc1cc(=O)n2c(c1C(=O)OCc1ccc(OC)cc1)CCCC2` | -28.25% |
| `CCn1cnnc1CNC(=O)c1cc(Cl)c(I)cc1OC` | 16.59% |
| `[H][C@@]12CCN(C(=O)NCC)C[C@]1([H])CCN(CCN1CCNC1=O)C(=O)C2` | -3.926% |
| `CN1CCC(Cc2nc(-c3cnccn3)n(Cc3ccccc3)n2)CC1` | 6.412% |
| `Cc1nn(C)c2nc(N(CCN(C)C)C3CCCC3)sc12` | -64.98% |
| `O=C1CC2(CCSC2)C(=O)N1CCCc1ccccc1` (stereo unspecified) | -3.322% |
| `O=c1cc(CN2CCCC2)nc2n1CCCN(Cc1ccsc1)C2` | 25.59% |
| `CC(Nc1nc(-c2ccccc2)nc2c1CCNCC2)c1nccs1` (stereo unspecified) | -12.23% |
| `Cc1ccc2nc(C)cc(NCCNS(=O)(=O)c3cn(C)nc3C)c2c1` | -6.451% |

The values are deposited in ChEMBL (CHEMBL3988442, “University of Dundee, Small-Polar-MMV Screening Library” (2021)).